# Some of the results follow.
# B1: XTP3-B-MRH2 (Homo sapiens), Q96DZ1 (protein)
# chain: EFLSGSYCFRGGVGWWKYEFCYGKHVHQYHEDKDSGKTSVVVGTWNQEEHIEWAKKNTARAYHLQDDGTQTVRMVSHFYGNGDICDITDKPRQVTVKLKCKESDSPHAVTVYMLEPHSCQYILGVESPVICKILDTA
# Key:
# Assay in all cases: glycan array binding signal (z-score within array); higher = stronger binding
# Conditions in all cases: glycan notation: IUPAC condensed, linker removed
# [1] = biological target: Fuc(a1-2)[GalNAc(a1-3)]Gal(b1-3)GlcNAc(b1-3)GalNAc
# How it was run: (§1)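 Arrays were curated from the Consortium for Functional Glycomics database, 3228 in total, and kept only where the protein sequence was available. Binding is expressed as a within-array Z-score. This score was averaged across arrays of the same protein sequence at different concentrations or buffers and across linkers, and negative values can be read as non-binding.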
# [2] = biological target: Fuc(a1-2)[GalNAc(a1-3)]Gal(b1-3)GlcNAc(b1-6)GalNAc
# How it was run: as §1
# [3] = biological target: Fuc(a1-2)[GalNAc(a1-3)]Gal(b1-4)Glc
# How it was run: as §1
# [4] = biological target: Fuc(a1-2)[GalNAc(a1-3)]Gal(b1-4)GlcNAc
# How it was run: as §1
# [5] = biological target: Fuc(a1-2)[GalNAc(a1-3)]Gal(b1-4)GlcNAc(b1-2)Man
# How it was run: as §1
# [6] = biological target: Fuc(a1-2)[GalNAc(a1-3)]Gal(b1-4)GlcNAc(b1-2)Man(a1-3)[Fuc(a1-2)[GalNAc(a1-3)]Gal(b1-4)GlcNAc(b1-2)Man(a1-6)]Man(b1-4)GlcNAc(b1-4)GlcNAc
# How it was run: as §1
# [7] = biological target: Fuc(a1-2)[GalNAc(a1-3)]Gal(b1-4)GlcNAc(b1-2)Man(a1-3)[Fuc(a1-2)[GalNAc(a1-3)]Gal(b1-4)GlcNAc(b1-2)Man(a1-6)]Man(b1-4)GlcNAc(b1-4)[Fuc(a1-6)]GlcNAc
# How it was run: as §1
# [8] = biological target: Fuc(a1-2)[GalNAc(a1-3)]Gal(b1-4)GlcNAc(b1-3)Gal(b1-4)GlcNAc
# How it was run: as §1
# [9] = biological target: Fuc(a1-2)[GalNAc(a1-3)]Gal(b1-4)GlcNAc(b1-3)Gal(b1-4)GlcNAc(b1-3)Gal(b1-4)GlcNAc
# How it was run: as §1
# [10] = biological target: Fuc(a1-2)[GalNAc(a1-3)]Gal(b1-4)GlcNAc(b1-3)GalNAc
# How it was run: as §1
# [11] = biological target: Fuc(a1-2)[GalNAc(a1-3)]Gal(b1-4)GlcNAc(b1-3)[Fuc(a1-2)[GalNAc(a1-3)]Gal(b1-4)GlcNAc(b1-6)]GalNAc
# How it was run: as §1
# [12] = biological target: Fuc(a1-2)[GalNAc(a1-3)]Gal(b1-4)GlcNAc(b1-6)GalNAc
# How it was run: as §1
# [13] = biological target: Fuc(a1-2)[GalNAc(a1-3)]Gal(b1-4)[Fuc(a1-3)]GlcNAc
# How it was run: as §1
# [14] = biological target: Fuc(a1-2)[GalNAc(a1-3)]Gal(b1-4)[Fuc(a1-3)]GlcNAc(b1-3)GalNAc
# How it was run: as §1
# [15] = biological target: Fuc(a1-2)[GalNAc(a1-4)]Gal(b1-4)GlcNAc
# How it was run: as §1
# [16] = biological target: Fuc(a1-2)[GalNAc(b1-3)]Gal
# How it was run: as §1
# Fuc(a1-3)GlcNAc = biological target: Fuc(a1-3)GlcNAc
# How it was run: as §1
# [17] = biological target: Fuc(a1-3)[Gal(b1-4)]Glc6S
# How it was run: as §1
# [18] = biological target: Fuc(a1-3)[Gal(b1-4)]GlcNAc
# How it was run: as §1
# [19] = biological target: Fuc(a1-3)[Gal(b1-4)]GlcNAc(b1-2)Man
# How it was run: as §1
# [20] = biological target: Fuc(a1-3)[Gal(b1-4)]GlcNAc(b1-2)Man(a1-3)[Fuc(a1-3)[Gal(b1-4)]GlcNAc(b1-2)Man(a1-6)]Man(b1-4)GlcNAc(b1-4)GlcNAc
# How it was run: as §1
# [21] = biological target: Fuc(a1-3)[Gal(b1-4)]GlcNAc(b1-2)Man(a1-3)[Fuc(a1-3)[Gal(b1-4)]GlcNAc(b1-2)Man(a1-6)]Man(b1-4)GlcNAc(b1-4)[Fuc(a1-6)]GlcNAc
# How it was run: as §1
# [22] = biological target: Fuc(a1-3)[Gal(b1-4)]GlcNAc(b1-3)Gal(b1-3)[Fuc(a1-4)]GlcNAc
# How it was run: as §1
# [23] = biological target: Fuc(a1-3)[Gal(b1-4)]GlcNAc(b1-3)Gal(b1-4)[Fuc(a1-3)]GlcNAc
# How it was run: as §1
# [24] = biological target: Fuc(a1-3)[Gal(b1-4)]GlcNAc(b1-3)Gal(b1-4)[Fuc(a1-3)]GlcNAc(b1-3)Gal(b1-4)[Fuc(a1-3)]GlcNAc
# How it was run: as §1
# [25] = biological target: Fuc(a1-3)[Gal(b1-4)]GlcNAc(b1-3)GalNAc
# How it was run: as §1
# [26] = biological target: Fuc(a1-3)[Gal(b1-4)]GlcNAc(b1-6)GalNAc
# How it was run: as §1
# [27] = biological target: Fuc(a1-3)[Gal(b1-4)]GlcNAc(b1-6)[Gal(b1-3)GlcNAc(b1-3)]Gal(b1-4)Glc
# How it was run: as §1
# [28] = biological target: Fuc(a1-3)[Gal(b1-4)]GlcNAc6S
# How it was run: as §1
# [29] = biological target: Fuc(a1-3)[Gal3S(b1-4)]Glc
# How it was run: as §1
# [30] = biological target: Fuc(a1-3)[Gal3S(b1-4)]GlcNAc
# How it was run: as §1
# [31] = biological target: Fuc(a1-3)[Gal3S(b1-4)]GlcNAc6S
# How it was run: as §1
# [32] = biological target: Fuc(a1-3)[GalNAc(b1-4)]GlcNAc
# How it was run: as §1
# [33] = biological target: Fuc(a1-3)[GalNAc(b1-4)]GlcNAc6S
# How it was run: as §1
# Fuc(a1-4)GlcNAc = biological target: Fuc(a1-4)GlcNAc
# How it was run: as §1
# Fuc(b1-3)GlcNAc = biological target: Fuc(b1-3)GlcNAc
# How it was run: as §1
# Gal(a1-2)Gal = biological target: Gal(a1-2)Gal
# How it was run: as §1
binder,measurement,setting,value
B1,glycan array binding signal (z-score),[1],-1.41
same,glycan array binding signal (z-score),[2],0.161
same,glycan array binding signal (z-score),[3],1.2
same,glycan array binding signal (z-score),[4],-0.054
same,glycan array binding signal (z-score),[5],-0.41
same,glycan array binding signal (z-score),[6],-0.577
same,glycan array binding signal (z-score),[7],-0.79
same,glycan array binding signal (z-score),[8],-0.677
same,glycan array binding signal (z-score),[9],0.442
same,glycan array binding signal (z-score),[10],0.028
same,glycan array binding signal (z-score),[11],-1.11
same,glycan array binding signal (z-score),[12],-0.35
same,glycan array binding signal (z-score),[13],-0.177
same,glycan array binding signal (z-score),[14],0.842
same,glycan array binding signal (z-score),[15],-0.124
same,glycan array binding signal (z-score),[16],-0.007
same,glycan array binding signal (z-score),Fuc(a1-3)GlcNAc,-1.66
same,glycan array binding signal (z-score),[17],-0.069
same,glycan array binding signal (z-score),[18],0.581
same,glycan array binding signal (z-score),[19],0.257
same,glycan array binding signal (z-score),[20],0.744
same,glycan array binding signal (z-score),[21],-1.2
same,glycan array binding signal (z-score),[22],-2.1
same,glycan array binding signal (z-score),[23],1.19
same,glycan array binding signal (z-score),[24],0.176
same,glycan array binding signal (z-score),[25],-0.079
same,glycan array binding signal (z-score),[26],0.421
same,glycan array binding signal (z-score),[27],-0.283
same,glycan array binding signal (z-score),[28],-0.412
same,glycan array binding signal (z-score),[29],-0.439
same,glycan array binding signal (z-score),[30],0.047
same,glycan array binding signal (z-score),[31],-0.011
same,glycan array binding signal (z-score),[32],1.43
same,glycan array binding signal (z-score),[33],-0.79
same,glycan array binding signal (z-score),Fuc(a1-4)GlcNAc,2.2
same,glycan array binding signal (z-score),Fuc(b1-3)GlcNAc,-0.321
same,glycan array binding signal (z-score),Gal(a1-2)Gal,-1.11

# Three entries picked at random from those above, as already listed:
binder,measurement,setting,value
B1,glycan array binding signal (z-score),Fuc(a1-3)GlcNAc,-1.66
same,glycan array binding signal (z-score),[14],0.842
same,glycan array binding signal (z-score),[29],-0.439

# Source: the supplement of paper PMC8728848
